The values below come from publication PMC6984821.

These are yes or no findings as the source states them, for the method shown. In cells and extracts the contact can be indirect. Binding calls can cover weak binding; strength is not graded here.

This assay deals with JCPyV-CY Small T antigen, C-terminal Flag-HA (CTAP) tagged (JC polyomavirus (JCPyV-CY)). Description: co-IP; HA-tag immunoprecipitation from lysates of HCT116 cells expressing CTAP (C-terminal Flag-HA) tagged STs; endogenous partners detected by immunoblot. (A western blot detects proteins with antibodies after separation by electrophoresis.)

B1: STRN3, endogenous (protein, UniProt Q13033 1-797)
chain: MDELAGGGGGGPGMAAPPRQQQGPGGNLGLSPGGNGAAGGGGPPASEGAGPAAGPELSRPQQYTIPGILHYIQHEWARFEMERAHWEVERAELQARIAFLQGERKGQENLKKDLVRRIKMLEYALKQERAKYHKLKYGTELNQGDLKMPTFESEETKDTEAPTAPQNSQLTWKQGRQLLRQYLQEVGYTDTILDVRSQRVRSLLGLSNSEPNGSVETKNLEQILNGGESPKQKGQEIKRSSGDVLETFNFLENADDSDEDEENDMIEGIPEGKDKHRMNKHKIGNEGLAADLTDDPDTEEALKEFDFLVTAEDGEGAGEARSSGDGTEWDKDDLSPTAEVWDVDQGLISKLKEQYKKERKGKKGVKRANRTKLYDMIADLGDDELPHIPSGIINQSRSASTRMTDHEGARAEEAEPITFPSGGGKSFIMGSDDVLLSVLGLGDLADLTVTNDADYSYDLPANKDAFRKTWNPKYTLRSHFDGVRALAFHPVEPVLVTASEDHTLKLWNLQKTVPAKKSASLDVEPIYTFRAHIGPVLSLAISSNGEQCFSGGIDATIQWWNMPSPSVDPYDTYEPNVLAGTLVGHTDAVWGLAYSGIKNQLLSCSADGTVRLWNPQEKLPCICTYNGDKKHGIPTSVDFIGCDPAHMVTSFNTGSAVIYDLETSQSLVILSSQVDSGLQSNNHINRVVSHPTLPVTITAHEDRHIKFFDNKTGKMIHSMVAHLDAVTSLAVDPNGIYLMSGSHDCSIRLWNLDSKTCVQEITAHRKKLDESIYDVAFHSSKAYIASAGADALAKVFV
For B1, the binding result is “binds”.
